Patent US20200048328A1 (Bristol-Myers Squibb, published 2020)
Positions count from the first letter of the chain named. These are yes or no findings as the source states them, for the method shown. Some entries that bind do so weakly or less than the wild type. For part of these data: Tags and fused reporters may be left off the sequences shown.

Chains of the proteins cited; added tags and fusions are not shown. Lines headed by an entry give the natural chain unless they say otherwise; changes in a name come on top. Residues count along the entry.
UniProt Q8NBP7, residues 31-692: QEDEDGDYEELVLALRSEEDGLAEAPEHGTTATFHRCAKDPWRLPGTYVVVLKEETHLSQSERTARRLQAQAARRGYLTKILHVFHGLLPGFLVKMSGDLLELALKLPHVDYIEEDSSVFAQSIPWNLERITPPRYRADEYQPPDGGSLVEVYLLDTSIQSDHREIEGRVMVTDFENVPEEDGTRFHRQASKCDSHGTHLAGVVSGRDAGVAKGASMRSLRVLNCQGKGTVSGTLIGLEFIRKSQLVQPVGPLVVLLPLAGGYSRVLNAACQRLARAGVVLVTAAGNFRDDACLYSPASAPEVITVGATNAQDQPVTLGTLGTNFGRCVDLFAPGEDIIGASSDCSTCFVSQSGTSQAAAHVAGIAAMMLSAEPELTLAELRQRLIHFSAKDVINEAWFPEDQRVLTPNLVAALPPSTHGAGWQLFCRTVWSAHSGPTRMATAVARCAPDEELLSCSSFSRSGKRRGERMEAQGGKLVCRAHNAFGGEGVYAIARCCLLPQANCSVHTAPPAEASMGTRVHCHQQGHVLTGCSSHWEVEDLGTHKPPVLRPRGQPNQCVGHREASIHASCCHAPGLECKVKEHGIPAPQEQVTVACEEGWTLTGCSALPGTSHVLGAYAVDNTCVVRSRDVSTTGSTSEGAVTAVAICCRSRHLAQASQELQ
UniProt P02768: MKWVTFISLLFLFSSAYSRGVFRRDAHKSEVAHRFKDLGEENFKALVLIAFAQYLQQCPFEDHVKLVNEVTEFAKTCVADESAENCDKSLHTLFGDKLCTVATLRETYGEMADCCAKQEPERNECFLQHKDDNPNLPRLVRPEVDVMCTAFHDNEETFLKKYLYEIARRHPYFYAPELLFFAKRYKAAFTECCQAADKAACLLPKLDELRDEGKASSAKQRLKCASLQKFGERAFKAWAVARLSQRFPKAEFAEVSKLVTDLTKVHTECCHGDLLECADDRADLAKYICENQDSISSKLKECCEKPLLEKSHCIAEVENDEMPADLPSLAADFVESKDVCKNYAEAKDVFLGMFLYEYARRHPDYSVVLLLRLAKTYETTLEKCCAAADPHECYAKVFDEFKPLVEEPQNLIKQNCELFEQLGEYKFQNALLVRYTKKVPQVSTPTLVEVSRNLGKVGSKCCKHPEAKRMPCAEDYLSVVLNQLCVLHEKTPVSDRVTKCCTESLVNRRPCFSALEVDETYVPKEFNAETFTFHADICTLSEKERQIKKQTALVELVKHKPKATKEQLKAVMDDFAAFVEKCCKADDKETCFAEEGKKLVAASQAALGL
UniProt Q28522, residues 17-600: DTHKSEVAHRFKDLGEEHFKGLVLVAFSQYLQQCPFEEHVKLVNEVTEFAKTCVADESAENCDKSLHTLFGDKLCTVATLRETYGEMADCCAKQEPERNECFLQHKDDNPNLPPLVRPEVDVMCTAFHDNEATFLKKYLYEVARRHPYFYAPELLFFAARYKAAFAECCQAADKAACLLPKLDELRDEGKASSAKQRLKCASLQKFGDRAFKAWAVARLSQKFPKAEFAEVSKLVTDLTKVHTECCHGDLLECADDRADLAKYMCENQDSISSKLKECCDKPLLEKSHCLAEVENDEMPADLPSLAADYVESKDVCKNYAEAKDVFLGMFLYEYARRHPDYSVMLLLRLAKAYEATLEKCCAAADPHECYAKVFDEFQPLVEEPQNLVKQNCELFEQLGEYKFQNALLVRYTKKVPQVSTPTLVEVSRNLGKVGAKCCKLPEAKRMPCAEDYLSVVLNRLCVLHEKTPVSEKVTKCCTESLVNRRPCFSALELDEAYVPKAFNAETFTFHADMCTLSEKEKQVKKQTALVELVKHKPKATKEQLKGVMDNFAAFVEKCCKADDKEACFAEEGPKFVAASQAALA
UniProt P07724, residues 25-608: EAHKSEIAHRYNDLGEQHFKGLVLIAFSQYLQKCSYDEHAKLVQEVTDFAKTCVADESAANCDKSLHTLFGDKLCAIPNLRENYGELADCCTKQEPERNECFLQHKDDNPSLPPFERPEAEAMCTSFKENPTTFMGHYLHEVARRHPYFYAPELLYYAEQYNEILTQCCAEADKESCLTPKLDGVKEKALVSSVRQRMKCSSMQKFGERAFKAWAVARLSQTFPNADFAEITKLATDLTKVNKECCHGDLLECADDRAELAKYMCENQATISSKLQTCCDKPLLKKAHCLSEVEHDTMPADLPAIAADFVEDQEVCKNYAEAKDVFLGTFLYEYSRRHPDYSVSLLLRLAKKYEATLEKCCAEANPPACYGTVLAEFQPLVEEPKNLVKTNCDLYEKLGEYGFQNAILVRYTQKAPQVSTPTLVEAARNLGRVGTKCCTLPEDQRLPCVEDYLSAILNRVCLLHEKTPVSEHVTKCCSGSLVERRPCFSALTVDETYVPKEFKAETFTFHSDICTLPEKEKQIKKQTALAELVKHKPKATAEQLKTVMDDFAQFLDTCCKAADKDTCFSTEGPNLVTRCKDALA
UniProt P02770, residues 25-608: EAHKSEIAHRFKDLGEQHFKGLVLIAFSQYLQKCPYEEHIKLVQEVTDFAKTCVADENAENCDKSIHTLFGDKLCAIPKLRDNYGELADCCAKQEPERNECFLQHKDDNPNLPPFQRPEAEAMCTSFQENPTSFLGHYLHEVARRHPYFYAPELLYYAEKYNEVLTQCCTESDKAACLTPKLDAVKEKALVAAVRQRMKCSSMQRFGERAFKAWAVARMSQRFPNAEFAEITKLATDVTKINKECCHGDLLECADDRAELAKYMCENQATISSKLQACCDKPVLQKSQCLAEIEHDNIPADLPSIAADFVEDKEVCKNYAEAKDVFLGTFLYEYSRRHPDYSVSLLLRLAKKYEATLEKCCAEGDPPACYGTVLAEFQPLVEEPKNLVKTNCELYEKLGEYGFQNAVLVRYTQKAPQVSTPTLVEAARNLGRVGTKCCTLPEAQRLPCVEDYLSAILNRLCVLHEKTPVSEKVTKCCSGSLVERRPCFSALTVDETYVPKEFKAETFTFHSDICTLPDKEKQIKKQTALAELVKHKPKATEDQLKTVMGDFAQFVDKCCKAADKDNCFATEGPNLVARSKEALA

B1: PCSK9-PKE2 tandem Adnectin w/ his tag 4472_C06 (designed binder)
chain: MGVSDVPRDLEVVAATPTSLLISWDAPAEGYGYYRITYGETGGNSPVQEFTVPVSKGTATISGLKPGVDYTITVYAVEFDFPGAGYYHRPISINYRTEPSTPPTPSPSTPPTPSPSGVSDVPRDLEVVAATPTSLLISWDAPAVTVRYYRITYGREVQKYSDLGPLYIYQEFTVPGSKSTATISGLKPGVDYTITVYAVTGSGESPASSKPISINYRTEHHHHHH
notes: also called ATI-1574; ADX_4472_C06
B2: PKE2 Adnectin 2270_C01 (designed binder)
chain: MASTSGVPRDLEVVAATPTSLLISWDAPAVTVRYYRITYGWQVQMYSDWGPLYIYKEFTVPGSKSTATISGLKPGVDYTITVYAVTGSGESPASSKPISINYRTEGDKPSQHHHHHH
notes: 10Fn3 domain with modified CD loop; the entry includes the His6 tail
B3: PKE2 Adnectin 2629_E06 (designed binder)
chain: MGVSDVPRDLEVVAATPTSLLISWDAPAVTVRYYRITYGREVQKYSDLGPLYIYQEFTVPGSKSTATISGLKPGVDYTITVYAVTGSGESPASSKPISINYRTEIDKPSQHHHHHH
notes: 10Fn3 domain with modified CD loop; the entry includes the His6 tail; also called ADX_2629_E06
B4: PKE2 Adnectin 2630_D02 (designed binder)
chain: B3 chain with L48W, Q55N
notes: as for B2
B5: 5916_E03.PS5-2 (designed binder)
chain: MGVSDVPRDLEVVAATPTSLLISWDAPAVTVRYYRITYGREVQKYSDLGPLYIYQEFTVPGSKSTATISGLKPGVDYTITVYAVTGSGESPASSKPISINYRTPCHHHHHH
B6: 5963_A02.PS5-2 (designed binder)
chain: MGCSTSGVSDVPRDLEVVAATPTSLLISWDAPAVTVRYYRITYGREVQKYSDLGPLYIYQEFTVPGSKSTATISGLKPGVDYTITVYAVTGSGESPASSKPISINYRTPHHHHHH

Key:
human PCSK9 [1] = biological target: T1, human PCSK9 (human, UniProt Q8NBP7 31-692); assay: BLI (Octet)
T1 construct: also called hPCSK9; huPCSK9

human PCSK9 [2] = biological target: T1, human PCSK9; assay: PCSK9 FRET assays
human PCSK9 [3] = biological target: T1, human PCSK9; assay: SPR, dual injection on immobilized albumin
human PCSK9 [4] = biological target: T1, human PCSK9; assay: SPR (Biacore), dual injection: human PCSK9 injected over tandem that is pre-bound to immobilized HSA; control trace with buffer instead of PCSK9
domain III of HSA = biological target: T2, domain III of HSA (human, UniProt P02768 405-609, limits assumed); assay: SPR on HSA domains
T2 construct: domain: III; also called HuSA domainIII

human serum albumin = biological target: T3, human serum albumin (human, UniProt P02768 25-609); assay: SPR off-rate
T3 construct: immobilized on chips or coated on plates elsewhere; also called HSA; HuSA

rhesus serum albumin = biological target: T4, rhesus serum albumin (rhesus, UniProt Q28522 17-600); assay: SPR off-rate
T4 construct: also called RhSA; Rh-SA

mouse serum albumin = biological target: T5, mouse serum albumin (mouse, UniProt P07724 25-608); assay: SPR off-rate
T5 construct: also called MSA; MuSA

rat serum albumin = biological target: T6, rat serum albumin (rat, UniProt P02770 25-608); assay: SPR off-rate
T6 construct: also called Rat SA; RSA

Row | Binder | binding (domain III of HSA) | binding (human serum albumin) | binding (rhesus serum albumin) | binding (mouse serum albumin) | binding (rat serum albumin) | also measured
1 | B1 |  |  |  |  |  | binding (human PCSK9 [1]): binds; binding (human PCSK9 [2]): binds; binding (human PCSK9 [3]): binds; binding (human PCSK9 [4]): binds
2 | B2 | binds |  |  |  |  | 
3 | B3 | binds |  |  |  |  | 
4 | B4 | binds |  |  |  |  | 
5 | B5 |  | binds | binds | binds | binds | 
6 | B6 |  | binds | binds | binds | binds | 
